Assay results reported in patent publication US20160031905A1, “Macrocyclic LRRK2 Kinase Inhibitors” (IPSEN PHARMA S.A.S., priority 2013, published 2016).
The structures given here were assigned with low confidence; some may be wrong.

The chains behind the UniProt entries cited, without tags or fusion partners.
UniProt Q5S007, whole entry: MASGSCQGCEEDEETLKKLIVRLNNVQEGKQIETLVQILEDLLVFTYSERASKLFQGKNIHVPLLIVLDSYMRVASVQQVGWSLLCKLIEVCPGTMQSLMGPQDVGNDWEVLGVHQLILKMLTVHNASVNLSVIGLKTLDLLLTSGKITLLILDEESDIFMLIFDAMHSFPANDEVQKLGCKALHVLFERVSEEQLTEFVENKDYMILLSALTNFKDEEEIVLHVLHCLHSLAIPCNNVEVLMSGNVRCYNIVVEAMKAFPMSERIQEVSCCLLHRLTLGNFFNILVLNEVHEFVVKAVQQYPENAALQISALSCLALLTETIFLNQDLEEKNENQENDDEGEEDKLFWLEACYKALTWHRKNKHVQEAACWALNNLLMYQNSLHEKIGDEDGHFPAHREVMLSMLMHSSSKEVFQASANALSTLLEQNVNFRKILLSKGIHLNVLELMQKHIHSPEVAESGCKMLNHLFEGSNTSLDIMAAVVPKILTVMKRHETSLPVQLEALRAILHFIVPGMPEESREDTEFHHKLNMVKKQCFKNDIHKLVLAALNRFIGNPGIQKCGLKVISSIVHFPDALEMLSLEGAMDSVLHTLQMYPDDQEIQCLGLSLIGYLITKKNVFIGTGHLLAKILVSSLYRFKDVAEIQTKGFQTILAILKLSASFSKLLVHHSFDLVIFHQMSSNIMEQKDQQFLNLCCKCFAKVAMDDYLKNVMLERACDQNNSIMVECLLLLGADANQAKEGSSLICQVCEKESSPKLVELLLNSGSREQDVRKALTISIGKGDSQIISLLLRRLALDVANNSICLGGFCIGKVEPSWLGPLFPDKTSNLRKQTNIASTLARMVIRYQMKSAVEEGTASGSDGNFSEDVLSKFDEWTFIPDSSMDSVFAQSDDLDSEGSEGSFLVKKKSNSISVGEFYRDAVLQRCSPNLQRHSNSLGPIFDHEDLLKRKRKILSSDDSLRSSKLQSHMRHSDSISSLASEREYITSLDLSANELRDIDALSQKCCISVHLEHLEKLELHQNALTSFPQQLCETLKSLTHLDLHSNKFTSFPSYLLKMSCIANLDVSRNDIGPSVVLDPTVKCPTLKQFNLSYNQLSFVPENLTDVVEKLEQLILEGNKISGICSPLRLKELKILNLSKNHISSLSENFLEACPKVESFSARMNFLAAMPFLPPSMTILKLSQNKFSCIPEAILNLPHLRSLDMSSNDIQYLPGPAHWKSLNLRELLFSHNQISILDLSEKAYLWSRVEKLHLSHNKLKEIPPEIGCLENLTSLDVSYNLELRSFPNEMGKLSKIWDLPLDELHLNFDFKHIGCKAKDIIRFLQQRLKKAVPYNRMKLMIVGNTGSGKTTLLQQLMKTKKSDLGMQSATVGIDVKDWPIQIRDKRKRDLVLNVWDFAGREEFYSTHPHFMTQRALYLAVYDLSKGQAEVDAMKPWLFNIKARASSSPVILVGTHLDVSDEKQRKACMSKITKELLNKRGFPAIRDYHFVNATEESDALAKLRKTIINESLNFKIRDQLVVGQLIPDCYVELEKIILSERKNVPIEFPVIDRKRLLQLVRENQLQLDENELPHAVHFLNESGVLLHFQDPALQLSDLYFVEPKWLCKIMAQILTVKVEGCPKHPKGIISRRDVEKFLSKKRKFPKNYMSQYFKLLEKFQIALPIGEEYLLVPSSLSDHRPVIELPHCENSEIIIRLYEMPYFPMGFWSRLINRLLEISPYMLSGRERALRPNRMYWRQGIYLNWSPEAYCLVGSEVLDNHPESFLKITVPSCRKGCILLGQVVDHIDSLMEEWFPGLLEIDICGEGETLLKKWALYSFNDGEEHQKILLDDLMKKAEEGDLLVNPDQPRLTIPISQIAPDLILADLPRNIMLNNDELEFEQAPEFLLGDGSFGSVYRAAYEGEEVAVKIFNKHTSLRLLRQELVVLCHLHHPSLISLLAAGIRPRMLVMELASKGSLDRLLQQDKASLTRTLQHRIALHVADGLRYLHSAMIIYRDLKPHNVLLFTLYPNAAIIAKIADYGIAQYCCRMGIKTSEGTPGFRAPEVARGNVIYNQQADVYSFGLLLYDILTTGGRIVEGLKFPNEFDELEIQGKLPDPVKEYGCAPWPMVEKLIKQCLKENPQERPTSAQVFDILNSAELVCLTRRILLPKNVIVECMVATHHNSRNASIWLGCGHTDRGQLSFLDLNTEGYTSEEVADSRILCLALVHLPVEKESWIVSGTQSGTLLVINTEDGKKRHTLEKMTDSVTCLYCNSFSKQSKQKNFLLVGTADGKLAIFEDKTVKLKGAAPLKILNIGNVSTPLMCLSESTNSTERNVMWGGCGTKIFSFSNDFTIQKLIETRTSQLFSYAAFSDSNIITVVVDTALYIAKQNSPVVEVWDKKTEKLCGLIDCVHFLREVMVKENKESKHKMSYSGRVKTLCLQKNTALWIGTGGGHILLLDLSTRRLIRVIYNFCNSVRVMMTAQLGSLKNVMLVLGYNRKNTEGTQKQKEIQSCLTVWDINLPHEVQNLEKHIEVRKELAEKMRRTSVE

Molecular target: LRRK2 recombinant protein (Homo sapiens, UniProt Q5S007)
Assay: Radiometric protein kinase assay (33PanQinase Activity Assay), in vitro peptide-based kinase assay
Conditions: read-out: IC50 for LRRK2; protein kinase LRRK2 7.3 nM, ATP 0.3 μM, substrate GSK3(14-27), 30° C. for 60 minutes
Protocol: The inhibition of LRRK2 kinase was assessed using LRRK2 recombinant protein in an in vitro peptide-based kinase assay.
A radiometric protein kinase assay (^33PanQinase® Activity Assay) is used for measuring the kinase activity. All assays are performed in 96-well FlashPlates™ from Perkin Elmer in a 50 μl reaction volume. The reaction cocktail is […] in 4 steps in the following order: • 10 μl of non-radioactive ATP solution (in H2O) • 25 μl of assay buffer/[γ-^33P]-ATP mixture • 5 μl of test sample in 10% DMSO • 10 μl of enzyme/substrate mixture
The assay for LRRK2 contains 70 mM HEPES-NaOH pH 7.5, 3 mM MgCl2, 3 mM MnCl2, 3 μM Na-orthovanadate, 1.2 mM DTT, 50 μg/ml PEG20000, ATP (0.3 μM), [γ-^33P]-ATP (approx. […] per well), protein kinase LRRK2 (7.3 nM) and substrate (GSK3(14-27), 1.0 μg/50 μl). The kinase is obtained from Invitrogen Corporation.
The reaction cocktails were incubated at 30° C. for 60 minutes. The reaction was stopped with 50 μl of 2% (v/v) H3PO4, plates were aspirated and washed two times with 200 μl 0.9% (w/v) NaCl. Incorporation of ^33Pi (counting of “cpm”) was determined with a microplate scintillation counter.
The compounds are dissolved to 10 mM in DMSO. Where needed, solutions are sonicated in a bath sonicator.

Row | Compound | IC50
1 | Fc1ccc2cc1-c1cnn3ccc(nc13)NCCNCCCO2 | < 100 nM
2 | CN1CCNCCNc2ccc(F)c(c2)-c2cnn3ccc1nc23 | < 100 nM
